# Reference: PubChem BioAssay AID1508588 (Peter MacCallum Cancer Centre, 2020)
# Assay: 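Knock-downs boosting vemurafenib effects on melanoma cell growth or lactate release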 (primary screen)
# Cell system: human WM266.4 melanoma cells (BRAF V600 mutant)
# Knock-down reagent: siRNA pool against human genes, 40 nM
# Timing: 96 h from transfection to read-out
# Treatment: vemurafenib 300 nM (about IC25), added 48 h after transfection, for 48 h; comparison arm got DMSO vehicle only
# Read-out: 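Cell gain (DAPI nuclei at end minus before drug, mean of two replicates) and medium lactate by absorbance per cell, both as ratio to non-targeting siRNA, also grouped into fold-change classes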
# Scale: cell gain with vemurafenib: higher = more cell gain than with non-targeting siRNA; lactate per cell with vemurafenib: higher = more lactate made per cell
# Hit rule: 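Enhancement is called by pairing each knock-down's vehicle-arm and drug-arm fold-change classes for viability or glycolysis; which class combinations qualify is not given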
# Meaning of the calls: active = enhances vemurafenib effect; inactive = no enhancement seen
# In all, the deposit lists about 18,000 reagents; shown is a random part of them. In the full data, 790 (4.4%) got an active call. 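Calls rest on a combination of fold-change classes in drug and vehicle arms, not all shown here.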
cell gain with vemurafenib,lactate per cell with vemurafenib,activity call,target,PubChem SID
0.39,1.35,inactive,NEURL4,SID135625206
0.71,0.44,inactive,H2AZ2,SID134316743
0.31,0.64,inactive,EPGN,SID152151453
0.73,0.64,inactive,CEP43,SID152153783
0.13,1.19,inactive,CLINT1,SID134324991
0.62,1.58,inactive,SFT2D2,SID134329598
1.02,0.61,inactive,FAM184A,SID152149783
0.16,1.32,inactive,SCRT1,SID152152850
0.6,1.13,inactive,DNAAF1,SID152153077
0.51,1.11,inactive,IL2,SID152149600
0.52,0.64,inactive,TOB2,SID152152290
0.67,1.33,inactive,TRIM29,SID152154560
0.8,0.98,inactive,CYP2J2,SID135621525
0.68,0.45,inactive,LHX8,SID135625300
0.61,1.94,inactive,DHX36,SID134317401
1.13,0.73,inactive,PABPC1,SID152156614
0.97,0.88,inactive,H2BC18,SID135625327
0.49,0.99,inactive,MDN1,SID135621838
0.48,0.77,inactive,ZNF280B,SID134312259
0.84,1.21,inactive,FAM124A,SID134322585
0.22,0.45,active,VSTM2L,SID152155931
0.66,0.44,inactive,CD7,SID152151646
0.53,0.56,inactive,HGFAC,SID135621095
-0.05,1.3,inactive,KLK3,SID134311341
0.55,0.93,inactive,MFSD12,SID152150778
0.64,0.73,inactive,SLC22A2,SID134312499
0.52,0.23,inactive,PPP1R2,SID135622937
0.56,0.78,inactive,RBMX,SID152156680
0.84,0.66,inactive,ARMH3,SID152151916
1.06,0.78,inactive,DNAJC16,SID135625193
1.1,0.36,inactive,PRAMEF7,SID135625180
0.43,0.6,inactive,SLC6A9,SID152155892
0.34,0.68,inactive,LNX2,SID152156696
0.31,0.72,inactive,PPP1R9B,SID135622849
0.85,0.38,inactive,CXCL2,SID152149091
0.05,0.76,inactive,CTRC,SID152154406
0.35,0.85,inactive,LPAR3,SID134310659
0.88,1,inactive,NEUROG2,SID134313847
0.6,0.56,inactive,DQX1,SID152153118
0.64,0.58,inactive,EIF2B2,SID152153708
0.59,1.27,inactive,SLC25A45,SID152150495
0.84,1.03,inactive,ZNF354C,SID135622691
1.04,0.69,inactive,BEX1,SID135622886
0.18,2.04,inactive,BATF2,SID134320805
0.42,0.75,inactive,RRP15,SID152147227

Copied from above for reference:
cell gain with vemurafenib,lactate per cell with vemurafenib,activity call,target,PubChem SID
0.49,0.99,inactive,MDN1,SID135621838
0.48,0.77,inactive,ZNF280B,SID134312259
0.84,1.21,inactive,FAM124A,SID134322585
0.22,0.45,active,VSTM2L,SID152155931
0.66,0.44,inactive,CD7,SID152151646
0.53,0.56,inactive,HGFAC,SID135621095
